PubChem BioAssay AID504834 (National Center for Advancing Translational Sciences (NCATS), 2011)
The whole screen tested about 320,000 compounds, of which about 22,000 (6.9%) were called active. The shares of active, inactive and inconclusive entries below differ from those in the screen. The call rests on the fitted dose curve; in most records, active means well fitted inhibition curve with a large enough effect; inconclusive means small, poorly fitted or top-dose-only effect, or another doubt; inactive means no such curve, though single readings can be large or run the other way. Potencies of inconclusive entries are doubtful fits and often do not repeat.
Potency means the concentration at half of the fitted maximal effect.

Assay: Primary qHTS for delayed death inhibitors of the malarial parasite plastid, 96 hour incubation
Details: P. falciparum luciferase reporter growth; series mostly up to 28.7 µM
How it was run: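 96 h incubation, 37 C, 5% CO2, of luciferase-reporter P. falciparum-infected RBCs (2% hematocrit, 0.05% parasitemia final) with test compounds; endpoint luminescence.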
With `NS(=O)(=O)c1cc2c(cc1Cl)NC(Cc1ccccc1)NS2(=O)=O` (centres undefined) the Potency was inconclusive: 7.38 µM [inhibitor, partial curve, poor fit]. With `COCCSc1ccccc1C(=O)Nc1ccc(S(=O)(=O)N2CCOCC2)cc1` the Potency was “inactive”. In the case of `COc1ccc2c(c1)[nH]c1c(=O)n(/N=C/c3ccc(OC)c(CN4CCCCC4)c3)cnc12`, the Potency is reported as inconclusive: 18.5 µM [inhibitor, single point]. With `CCOc1ccc(NC(=S)N(CCc2c(C)[nH]c3ccc(C)cc23)Cc2ccco2)cc1` the Potency was inconclusive: 14.7 µM [inhibitor, partial curve, poor fit]. In the case of `CC(C)OC(=O)CSc1nc2ncccc2[nH]1`, the Potency is reported as “inactive”. With `Cc1ccccc1Nc1c(-c2ccc(N3CCOCC3)cc2)nc2ncccn12` the Potency was “inactive”. In the case of `Cc1cccn2c(=O)c(/C=N/O)c(N3CCCCC3)nc12`, the Potency is reported as inconclusive: 11.7 µM [inhibitor, single point]. In the case of `Cc1ccc(C)c(Nc2ccc(C(=O)NCCc3ccccc3)cn2)c1`, the Potency is reported as “inactive”. For `O=C(CN1C(=O)C2C3C=CC(C4CC34)C2C1=O)Nc1cnc2ccccc2c1` (centres undefined), the Potency was “inactive”. In the case of `CCOC(=O)c1ccc(NC(=O)CC2SCCNC2=O)cc1` (centres undefined), the Potency is reported as “inactive”. For `CC1(C(=O)Nc2ccc3c(c2)OCO3)CC1(Cl)Cl` (centres undefined), the Potency was “inactive”. In the case of `COc1ccc(N2C(=O)C3CCCN3C2c2ccc(F)cc2)cc1Cl` (centres undefined), the Potency is reported as inconclusive: 0.0329 µM [inhibitor, full curve, poor fit]. In the case of `CC(C(=O)Nc1cc(C(F)(F)F)ccc1N1CCOCC1)N1C(=O)C2CCCCC2C1=O` (centres undefined), the Potency is reported as “inactive”. In the case of `N#C/C(=C\Nc1ccc2c(c1)OCCO2)C(=O)NCc1ccco1`, the Potency is reported as “inactive”. In the case of `Fc1ccc(CNC2CCN(Cc3ccccc3)CC2)cc1`, the Potency is reported as active: 1.17 µM. In the case of `CCOC(=O)c1c(NC(=O)OC)sc(C(=O)N(CC)CC)c1C`, the Potency is reported as inconclusive: 10.4 µM [inhibitor, single point]. For `CNC(=O)COC(=O)/C=C/c1nc2ccccc2s1`, the Potency was inconclusive: 10.4 µM [inhibitor, single point]. For `Cc1ccc(C(O)(CCN2CCCCC2)c2ccccc2)cc1` (centres undefined), the Potency was “inactive”. For `CCOc1ccc(NS(=O)(=O)c2ccc(C(=O)NCC(c3ccccc3OC)N3CCCC3)cc2)cc1` (centres undefined), the Potency was active: 14.7 µM. For `Cc1cccc(CCNC(=O)CC2C(=O)NCCN2CC2CCCCC2)n1` (centres undefined), the Potency was inconclusive: 18.5 µM [inhibitor, single point]. In the case of `O=C(Cc1cccs1)NC(Cc1c[nH]c2ccccc12)C(=O)O` (centres undefined), the Potency is reported as inconclusive: 10.4 µM [inhibitor, single point]. In the case of `COc1ccccc1NC(=O)Cc1coc2cc(C)ccc12`, the Potency is reported as “inactive”. With `Cc1cccc(C)c1NC(=O)C1CCCN1S(=O)(=O)c1ccc(-c2ccc(=O)[nH]n2)s1` (centres undefined) the Potency was inconclusive: 16.5 µM [inhibitor, single point]. For `CCCCN(C)Cc1c(C)[nH]c2ccc(OCC)cc2c1=O`, the Potency was inconclusive: 10.4 µM [inhibitor, single point]. With `COC(=O)c1ccc(/C=C(\C#N)C(=O)NC(C)c2ccccc2)cc1` (centres undefined) the Potency was inconclusive: 8.28 µM [inhibitor, partial curve]. For `CC1=C(C)SC(=C(C#N)c2nnc(N3CCOCC3)n2-c2ccccc2)S1`, the Potency was active: 9.28 µM. In the case of `COc1cccc(-n2nc(-c3ccnn3-c3ccccc3)c(=O)n(C)c2=O)c1`, the Potency is reported as active: 11.7 µM. In the case of `CCCn1c(C(C)Nc2nc(-c3ccc(C)cc3)cs2)nc2cc(Cl)c(N3CCCCC3)cc21` (centres undefined), the Potency is reported as inconclusive: 2.33 µM [inhibitor, single point]. In the case of `COc1ccccc1/C=C/C(=O)c1ccccc1`, the Potency is reported as “inactive”. In the case of `Cn1cc(S(=O)(=O)Nc2cccc3ccccc23)c(=O)n(C)c1=O`, the Potency is reported as “inactive”. For `CCOC(=O)COc1c(OC)cc(Cl)cc1C1Nc2ccccc2C(=O)N1c1ccc(F)cc1` (centres undefined), the Potency was “inactive”. In the case of `C/C=C/C(=O)OCC(=O)Nc1cccc(S(=O)(=O)NC2=NCCCCC2)c1`, the Potency is reported as inconclusive: 1.31 µM [inhibitor, partial curve, poor fit]. With `O=C(CSc1nc2ccccc2c(=O)n1-c1ccccc1Cl)NCC1CCCO1` (centres undefined) the Potency was inconclusive: 9.28 µM [inhibitor, single point]. With `CC1CCN(c2nc(N(C)c3ccccc3)nc(N)c2[N+](=O)[O-])CC1` the Potency was “inactive”. For `CCOC(=O)C1=C(C)N=c2s/c(=C\c3cc(OC)c(OC)c(OC)c3)c(=O)n2C1/C=C/c1ccccc1` (centres undefined), the Potency was active: 2.08 µM. In the case of `Cc1cccc(OCc2nnc(SCC(=O)N3CC(=O)Nc4ccccc43)o2)c1`, the Potency is reported as “inactive”. In the case of `CCCCCOC(=O)c1ccc(NC(=O)c2cccc(NC(=O)c3ccccc3C(=O)O)c2)cc1`, the Potency is reported as inconclusive: 9.28 µM [inhibitor, single point]. For `COc1cc(C)c(NC(=S)Nc2ccc(Cl)c(Cl)c2)cc1OC`, the Potency was inconclusive: 18.5 µM [inhibitor, single point]. In the case of `c1ccc(-c2ccc(-c3nc(-c4cccnc4)no3)cc2)cc1`, the Potency is reported as “inactive”. For `O=C(COC(=O)c1ccccc1C(=O)c1ccc(Cl)c([N+](=O)[O-])c1)NC1CCCCCC1`, the Potency was “inactive”. For `COc1ccc(CNCc2cccc3ccccc23)cc1`, the Potency was inconclusive: 20.8 µM [inhibitor, partial curve, poor fit]. In the case of `CCCCN(C(=O)C(C)Oc1ccc(Br)cc1)c1c(N)n(Cc2ccccc2)c(=O)[nH]c1=O` (centres undefined), the Potency is reported as inconclusive: 10.4 µM [inhibitor, single point]. With `CCC(=O)N(Cc1cc(=O)[nH]c2ccccc12)c1cccc(C)c1` the Potency was inconclusive: 20.8 µM [inhibitor, partial curve, poor fit]. With `COc1cccc2cc(C(=O)Nc3ccc(S(=O)(=O)NCC4CCCO4)cc3)c(=O)oc12` (centres undefined) the Potency was “inactive”. For `Cc1ccc(N(C(=O)CCC(=O)Nc2cc(C)on2)C(C(=O)NC2CCCC2)c2ccncc2)cc1` (centres undefined), the Potency was inconclusive: 18.5 µM [inhibitor, single point]. With `Cc1cc(C)cc(NC(=O)CCNS(=O)(=O)c2cc(Br)cnc2N)c1` the Potency was inconclusive: 1.47 µM [inhibitor, partial curve, poor fit]. In the case of `C/C(=N\NC(=O)c1nn(C)cc1Br)c1cccc(NC(=O)c2ccncc2)c1`, the Potency is reported as inconclusive: 10.4 µM [inhibitor, single point]. With `O=C1c2cccc3c([N+](=O)[O-])c(O)cc(c23)C(=O)N1Nc1ccccc1` the Potency was inconclusive: 0.262 µM [inhibitor, partial curve, poor fit]. For `COC(=O)c1sc(N)c(C(=O)OC)c1COC(=O)C12CC3CC(CC(O)(C3)C1)C2`, the Potency was inconclusive: 9.28 µM [inhibitor, partial curve]. For `COCCN(C(=O)CCC(=O)Nc1cc(C)on1)C(C(=O)NC(C)(C)C)c1ccccc1Cl` (centres undefined), the Potency was inconclusive: 18.5 µM [inhibitor, single point]. With `NC(=O)Cc1ccc(Nc2nnc(-c3ccc(O)cc3)c3ccccc23)cc1` the Potency was inconclusive: 10.4 µM [inhibitor, single point]. In the case of `COc1ccc(NC(=O)c2cc(OC)c(OC)c(OC)c2Br)cc1OC`, the Potency is reported as inconclusive: 18.5 µM [inhibitor, partial curve, poor fit]. With `CC1CCN(C(=O)c2ccc(SCc3ccccc3F)c([N+](=O)[O-])c2)CC1` the Potency was inconclusive: 16.5 µM [inhibitor, single point]. With `O=C(CNC(=O)c1sc2ccccc2c1Cl)NCc1cccnc1` the Potency was inconclusive: 18.5 µM [inhibitor, single point]. For `C=CCNC(=O)CSc1nc2sc3c(c2c(=O)n1CCCOC)CCC3`, the Potency was inconclusive: 2.94 µM [inhibitor, partial curve, poor fit]. With `COc1ccc(OCC(=O)OCC(=O)Nc2ccc(S(=O)(=O)N3CCCCC3)cc2)cc1` the Potency was inconclusive: 18.5 µM [inhibitor, single point]. For `COc1ccc(N2CCN(CCCNC(=O)C3CCN(S(=O)(=O)N4CCOCC4)CC3)CC2)cc1`, the Potency was inconclusive: 10.4 µM [inhibitor, single point]. In the case of `O=C(COc1ccc2c3c(c(=O)oc2c1)CCC3)Nc1ccc(CN2CCOCC2)cc1`, the Potency is reported as inconclusive: 11.7 µM [inhibitor, single point]. With `COc1ccc(/C=C(\C#N)c2n[nH]c(Cn3cncn3)n2)cc1` the Potency was “inactive”. In the case of `O=C(COc1ccc(Br)cc1)Nc1ccc(NC(=O)c2ccccc2)cc1`, the Potency is reported as inconclusive: 18.5 µM [inhibitor, single point]. In the case of `NC(=O)C1CCN(C(=O)c2ccccc2CCc2ccccc2)CC1`, the Potency is reported as inconclusive: 9.28 µM [inhibitor, partial curve, poor fit]. In the case of `O=C(NC(=S)NCc1ccccc1)c1ccccc1Br`, the Potency is reported as inconclusive: 11.7 µM [inhibitor, single point]. For `COc1ccc2nc(NC(=O)C3CSC4(C)CCC(=O)N34)sc2c1` (centres undefined), the Potency was “inactive”. For `CC(C)NCC(O)COC1CCC(C(C)(C)C)CC1` (centres undefined), the Potency was inconclusive: 2.33 µM [inhibitor, full curve, poor fit]. For `COc1cc(/C=N/NC(=O)c2nnn(-c3nonc3N)c2C(C)C)ccc1OCc1ccccc1`, the Potency was active: 9.28 µM. With `CCN(CC)CCCN(Cc1cc2cc3c(cc2[nH]c1=O)OCO3)C(=S)Nc1ccccc1` the Potency was inconclusive: 2.62 µM [inhibitor, full curve]. In the case of `Cc1cccc(SC2CCN(C(=O)C3CCC(=O)N(C4CC4)C3)CC2)c1` (centres undefined), the Potency is reported as inconclusive: 0.329 µM [inhibitor, full curve, poor fit]. With `CCCCc1ccc(NC(=O)NCc2cccnc2)cc1` the Potency was “inactive”. For `CCOC(=O)C(=Cc1ccc(-n2cncn2)cc1)C(=O)OCC`, the Potency was inconclusive: 0.738 µM [inhibitor, full curve, poor fit].
